PubChem BioAssay AID652272 – Drosophila RNAi Screening Center – 2013

- Test: 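Finding fly genes that regulate Hedgehog signal transduction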 (primary screen)
- Cell system: Drosophila clone 8 (Cl8) cells
- Knock-down reagent: long dsRNA against Drosophila genes
- Measurement: 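Plate reader light from a firefly reporter under a ptc promoter fragment that responds to Hedgehog, with Renilla light as transfection reference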
- Scale: firefly Hh reporter signal: higher = more ptc reporter light; Renilla reference signal: higher = more Renilla control light
- Hit rule: 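Called a hit if the two-replicate mean z-score lies below -2 or above +3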
- Calls: active = hit: reporter lowered or raised; inactive = not a hit
In all, the deposit lists about 21,000 reagents; shown is an unselected part of those with a known target gene and a result. In the full data, 503 (2.4%) were called active. 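Raw plate light values, not normalised; calls rest on replicate z-scores that were not deposited; hits include reporter decreases as well as increases.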 Entries without a mark were called inactive. A plus sign joins genes that one reagent is predicted to hit. Reagent sequences are not shown. The record does not give: the amount of reagent, the time to read-out.

Target gene,PubChem SID,"firefly Hh reporter signal, replicate 1","firefly Hh reporter signal, replicate 2","firefly Hh reporter signal, replicate 3","Renilla reference signal, replicate 1","Renilla reference signal, replicate 2"
sip2,SID104182946,1.02e5,54085,,3080,5242
CG12818,SID104194348,75904,99472,,3120,2859
CG8089,SID104186866,99496,45380,,2529,3879
lncRNA:sphinx,SID104196991,77928,1.77e5,,1691,6029
CG14036,SID104182153,1.22e5,52996,,2632,5269
wntD,SID104196215,1.27e5,97852,,3531,2109
CG30195,SID104183947,1.07e5,63753,,2736,6508
wg,SID104183428,1.42e5,61397,,3673,6209
Ilp5,SID104188790,1.49e5,2.49e5,,4429,10800
CG17996 + Tsen2,SID104182442,67210,54818,,1604,5419
Cox10,SID104182596,69332,44619,,2755,1728
Cyp4ac3,SID104183096,1.58e5,1.59e5,,5961,6352
CG8093,SID104186870,74256,55161,,2218,3500
chic,SID104183299,1.43e5,55508,,4496,6720
Sras,SID104191079,51259,52497,,5353,3648
Nna1,SID104198785,8.20e5,8.24e5,3.12e5,47025,7404
Nna1,SID104199196,94983,90330,,1836,1240
CG14851,SID104194767,1.37e5,1.41e5,,4787,3709
CG5276,SID104195551,72868,96172,,1964,2698
CG17776,SID104197928,94956,2.80e5,,3956,9299
CG4004,SID104199583,98811,80128,,2125,2464
CG4004,SID104199674,75322,2.40e5,,2816,9424
Rsph3,SID104189488,1.40e5,1.14e5,,5888,4428
Rsph3,SID104190003,65659,69853,,7757,5043
CG17349,SID104182402,84515,40964,,2500,4440
CG8671,SID104182894,68646,46256,,1654,4121
CG8671,SID104182895,76885,56048,,1828,5104
CG4186,SID104191545,1.05e5,96987,,3746,2951
Vha55,SID104196688,1.88e5,1.38e5,,7642,5405
SPoCk,SID104191467,74338,1.36e5,,2645,3819
SPoCk,SID104191498,64425,91275,,2613,2375
SPoCk,SID104191636,84477,1.10e5,,3141,2996
SPoCk,SID104191637,74248,84965,,2800,2343
CG11788,SID104185876,61354,42194,,1772,3031
Pmvk,SID104181824,97024,67523,,2384,5658
sa,SID104191441,74140,5.47e5,1.19e5,2797,5241
bt,SID104196921,1.25e5,52810,,2955,1877
bt,SID104196963,1.35e5,73853,,3610,2722
obst-A,SID104200335,1.23e5,1.37e5,,2992,3360
ppk10,SID104180915,5.40e5,2.08e5,,25828,9943
CG31249,SID104196040,5.59e5,1.31e5,,24368,3271
sha,SID104186123,99450,58576,,2854,5069
CG12848,SID104183920,1.07e5,64965,,2480,5650
CG6330,SID104195814,82696,69666,,1936,1992
PolQ,SID104196798,1.18e5,1.20e5,,3984,2695
CG42714,SID104188590,1.12e5,2.31e5,,2787,9131
CG13539,SID104183973,68454,58460,,1513,5200
Mo25,SID104191016,77072,81048,,2930,2077
Su(var)205,SID104183238,1.02e5,65396,,4224,2834
Cyp6a20,SID104187172,1.21e5,51318,,4699,1472
CG34409,SID104194369,68886,1.25e5,,1768,3011
Cpr49Ab,SID104185133,1.44e5,2.06e5,,3914,9203
CG13245,SID104182035,82340,86840,,4064,3681
Or63a,SID104188473,95576,45943,,3065,3731
SoxN,SID104183232,1.10e5,5.05e5,65270,2276,28483
TTLL12,SID104186347,94352,68261,,2608,4667
pdgy,SID104198856,4.57e5,2.17e5,,27176,4802
pdgy,SID104199133,1.26e5,1.09e5,,3005,2856
CG11368,SID104197570,83443,1.82e5,,2604,6971
Secp43,SID104180246,1.02e5,53796,,2817,7317
Gss1 + Gss2,SID104199800,1.41e5,2.92e5,,4710,13274
Brf,SID104193020,49025,2.60e5,,11059,4107
Brf,SID104193958,84947,84533,,1932,2105
Brf,SID104193959,71030,60460,,1984,1633
CG34126,SID104182518,1.40e5,55417,,3632,5498
CG11523,SID104191461,1.10e5,90618,,4343,3729
Pdf,SID104196578,4.46e5,64452,,2265,2265
natalisin,SID104194758,33089,38362,,1479,1201
natalisin,SID104194759,1.05e5,82855,,3643,1692
CG3191,SID104198322,1.89e5,1.02e5,,4738,3600
CG5255,SID104195546,70009,84569,,1811,6569
Apt1,SID104190140,40643,53120,61312,3748,4297
Cyp6t1,SID104200356,1.07e5,3.26e5,,2896,14387

Copied from the list:
PolQ [SID104196798], Renilla reference signal, replicate 1: 3984
For “firefly Hh reporter signal, replicate 1”, CG13539 [SID104183973] is entered as 68454
Result for CG5255 [SID104195546] under “firefly Hh reporter signal, replicate 2”: 84569
